{
  "source": "patent US20190083521A1",
  "about": "“COMBINATION THERAPY FOR TREATING CANCER” (Epizyme, Inc., priority 2014, published 2019)",
  "test_system": "MOLM-13 (MLL-AF9) cells",
  "assay": "Combination proliferation assay with Compound A2 (CellTiter-Glo, Chou-Talalay CI)",
  "format": "cell-based, human",
  "conditions": "7 Day Cotreatment Model",
  "experimental": "The acute myelogenous leukemia cell lines MV4-11 (MLL-AF4) and MOLM-13 (MLL-AF9) were obtained from American Type Culture Collection (ATCC; Rockville, Md.) and Deutsche Sammlung von Mikroorganismen and Zellkulturen (DSMZ; Braunschweig, Germany) respectively.\nStudies were performed using MLL-rearranged cell lines in vitro to evaluate the anti-proliferative effect of a combination of two agents together on cell growth. Initial proliferation studies were performed to determine the IC50 of a given compound in each cell line. The cell counts were measured by ATP quantitation using the Promega Cell Titer Glo kit and luminescence values corresponded to the amount of ATP in a given well.\nCompounds were evaluated for synergy in the co-treatment phase by testing the compounds in a concentration range which was bracketed around their IC50 values. […]\nThe drug combination analysis was performed utilizing the Chou-Talalay method Synergy was determined using the software package Calcusyn by Biosoft. The combination index (CI) is a quantitative term used to describe the level of synergy or antagonism in a given test system. […]\nThe HP-D300 digital dispenser (Tecan) was used to dispense compounds in a combinatorial matrix. […] Cell viability was measured via ATP content using CellTiter-Glo® (Promega).\nViability was determined using CellTiter-Glo® (Promega). […]",
  "data": [
    {"smiles": "O=C1OCCN1/N=C/c1ccc([N+](=O)[O-])o1", "note": "[Furazolidone]", "values": [
      {"measurement": "Combination effect with Compound A2 (Table 4)", "result": "Combination Benefit"}
    ]}
  ]
}
